In US12723053B2, “KRas inhibitors” (ELI LILLY AND COMPANY, priority 2023, dated 2026):
Some results were stated once for a whole list of compounds, not compound by compound.

molecular target: T1, KRas G12D mutant (Homo sapiens, UniProt P01116, G12D); test: PANC-1 Cellular Active RAS GTPase ELISA (KRas G12D Mutation); type: cell-based; conditions: PANC-1 cells, 2 hours incubation; read-out: relative IC50, inhibition of constitutive RAS GTPase activity (KRas G12D mutant)
T1 construct: host or cells: PANC-1 human pancreatic ductal adenocarcinoma cells

| Compound | IC50 [nM] |
| --- | --- |
| C[C@@H]1COCCN1CC1(COc2nc(N3C4CCC3CN(C[C@@H](C)O)C4)c3c4c(c(-c5ncc(F)c6sc(N)c(C#N)c56)c(F)c3n2)COC4)CC1 [Example 16, 2-Amino-7-fluoro-4-(5-fluoro-1-(3-((R)-2-hydroxypropyl)-3,8-diazabicyclo[3.2.1]octan-8-yl)-3-((1-(((R)-3-methylmorpholino)methyl)cyclopropyl)methoxy)-7,9-dihydrofuro[3,4-f]quinazolin-6-yl)thieno[3,2-c]pyridine-3-carbonitrile] | < 100 |
| C[C@@H](O)CN1CC2CCC(C1)N2c1nc(OCC2(CN3C[C@@H]4C[C@H]3CO4)CC2)nc2c(F)c(-c3ncc(F)c4sc(N)c(C#N)c34)c3c(c12)COC3 [Example 17, 4-(3-((1-(((1S,4S)-2-Oxa-5-azabicyclo[2.2.1]heptan-5-yl)methyl)cyclopropyl)meth-oxy)-5-fluoro-1-(3-((R)-2-hydroxypropyl)-3,8-diazabicyclo[3.2.1]octan-8-yl)-7,9-dihydrofuro[3,4-f]quinazolin-6-yl)-2-amino-7-fluorothieno[3,2-c]pyridine-3-carbonitrile] | < 100 |
| CC(=O)N1CCN(CC2(COc3nc(N4C5CCC4CN(C[C@@H](C)O)C5)c4c5c(c(-c6ncc(F)c7sc(N)c(C#N)c67)c(F)c4n3)COC5)CC2)CC1 [Example 18, 4-(3-((1-((4-Acetylpiperazin-1-yl)methyl)cyclopropyl)meth-oxy)-5-fluoro-1-(3-((R)-2-hydroxypropyl)-3,8-diazabicyclo[3.2.1]octan-8-yl)-7,9-dihydrofuro[3,4-f]quinazolin-6-yl)-2-amino-7-fluorothieno[3,2-c]pyridine-3-carbonitrile] | < 100 |
| C[C@@H](O)CN1CC2CCC(C1)N2c1nc(OCC2(CN3C[C@H]4COC[C@H]4C3)CC2)nc2c(F)c(-c3ncc(F)c4sc(N)c(C#N)c34)c3c(c12)COC3 [Example 20B, 2-Amino-7-fluoro-4-(5-fluoro-1-(3-((R)-2-hydroxypropyl)-3,8-diazabicyclo[3.2.1]octan-8-yl)-3-((1-(((3aR,6aS)-tetrahydro-1H-furo[3,4-c]pyrrol-5(3H)-yl)methyl)cyclopropyl)meth-oxy)-7,9-dihydrofuro[3,4-f]quinazolin-6-yl)thieno[3,2-c]pyridine-3-carbonitrile] | < 100 |
| C[C@@H](O)CN1CC2CCC(C1)N2c1nc(OCC2(CN3CC[C@H]3CF)CC2)nc2c(F)c(-c3ncc(F)c4sc(N)c(C#N)c34)c3c(c12)COC3 [Example 21B, 2-Amino-7-fluoro-4-(5-fluoro-3-((1-(((S)-2-(fluoromethyl)azetidin-1-yl)methyl)cyclopropyl)meth-oxy)-1-(3-((R)-2-hydroxypropyl)-3,8-diazabicyclo[3.2.1]octan-8-yl)-7,9-dihydrofuro[3,4-f]quinazolin-6-yl)thieno[3,2-c]pyridine-3-carbonitrile] | < 100 |
| CN1CC[C@@]12CCN(c1ncc3c4c(c(-c5ncc(F)c6sc(N)c(C#N)c56)c(F)c3n1)COC4)C2 [Example 30A, 2-Amino-7-fluoro-4-(5-fluoro-3-((S)-1-methyl-1,6-diazaspiro[3.4]octan-6-yl)-7,9-dihydrofuro[3,4-f]quinazolin-6-yl)thieno[3,2-c]pyridine-3-carbonitrile] | < 100 |
| CN(C)[C@H]1CCN(c2ncc3c4c(c(-c5ncc(F)c6sc(N)c(C#N)c56)c(F)c3n2)COC4)C1 [Example 42A, 2-Amino-4-(3-((S)-3-(dimethylamino)pyrrolidin-1-yl)-5-fluoro-7,9-dihydrofuro[3,4-f]quinazolin-6-yl)-7-fluorothieno[3,2-c]pyridine-3-carbonitrile] | < 100 |
| CN(C)[C@@H]1CN(c2ncc3c4c(c(-c5ncc(F)c6sc(N)c(C#N)c56)c(F)c3n2)COC4)C[C@H]1F [Example 55A, 2-Amino-4-(3-((3R,4R)-3-(dimethylamino)-4-fluoropyrrolidin-1-yl)-5-fluoro-7,9-dihydrofuro[3,4-f]quinazolin-6-yl)-7-fluorothieno[3,2-c]pyridine-3-carbonitrile] | < 100 |
| C[C@H]1CN(c2ncc3c4c(c(-c5ncc(F)c6sc(N)c(C#N)c56)c(F)c3n2)COC4)C[C@H]1N(C)C [Example 58A, 2-Amino-4-(3-((3S,4S)-3-(dimethylamino)-4-methylpyrrolidin-1-yl)-5-fluoro-7,9-dihydrofuro[3,4-f]quinazolin-6-yl)-7-fluorothieno[3,2-c]pyridine-3-carbonitrile] | < 100 |
| CN(C)[C@@]1(C)CCN(c2ncc3c4c(c(-c5ncc(F)c6sc(N)c(C#N)c56)c(F)c3n2)COC4)C1 [Example 65A, 2-Amino-4-(3-((S)-3-(dimethylamino)-3-methylpyrrolidin-1-yl)-5-fluoro-7,9-dihydrofuro[3,4-f]quinazolin-6-yl)-7-fluorothieno[3,2-c]pyridine-3-carbonitrile] | < 100 |
| N#Cc1c(N)sc2c(F)cnc(-c3c4c(c5cnc(N6CC[C@H](N7CCC7)C6)nc5c3F)COC4)c12 [Example 105B, 2-Amino-4-(3-((S)-3-(azetidin-1-yl)pyrrolidin-1-yl)-5-fluoro-7,9-dihydrofuro[3,4-f]quinazolin-6-yl)-7-fluorothieno[3,2-c]pyridine-3-carbonitrile] | < 100 |

same assay, conditions: PANC-1 vs MKN-45 Cellular Active RAS GTPase ELISA

| Compound | selective inhibition preference for KRas G12D mutant over KRas wild-type |
| --- | --- |
| C[C@@H](O)CN1CC2CCC(C1)N2c1nc(N2CC3(CCCN3C)C2)nc2c(F)c(-c3ncc(F)c4sc(N)c(C#N)c34)c3c(c12)COC3 [Example 14B, 2-Amino-7-fluoro-4-(5-fluoro-1-(3-((R)-2-hydroxypropyl)-3,8-diazabicyclo[3.2.1]octan-8-yl)-3-(5-methyl-2,5-diazaspiro[3.4]octan-2-yl)-7,9-dihydrofuro[3,4-f]quinazolin-6-yl)thieno[3,2-c]pyridine-3-carbonitrile] | greater than 10 fold |
| C[C@@H](O)CN1CC2CCC(C1)N2c1nc(N2CC(N3CCCC3)C2)nc2c(F)c(-c3ncc(F)c4sc(N)c(C#N)c34)c3c(c12)COC3 [Example 17B, 2-Amino-7-fluoro-4-(5-fluoro-1-(3-((R)-2-hydroxypropyl)-3,8-diazabicyclo[3.2.1]octan-8-yl)-3-(3-(pyrrolidin-1-yl)azetidin-1-yl)-7,9-dihydrofuro[3,4-f]quinazolin-6-yl)thieno[3,2-c]pyridine-3-carbonitrile] | greater than 10 fold |
| C[C@@H](O)CN1CC2CCC(C1)N2c1nc(OCC2(CN3CC(F)C3)CC2)nc2c(F)c(-c3ncc(F)c4sc(N)c(C#N)c34)c3c(c12)COC3 [Example 19A, 2-Amino-7-fluoro-4-(5-fluoro-3-((1-((3-fluoroazetidin-1-yl)methyl)cyclopropyl)meth-oxy)-1-(3-((R)-2-hydroxypropyl)-3,8-diazabicyclo[3.2.1]octan-8-yl)-7,9-dihydrofuro[3,4-f]quinazolin-6-yl)thieno[3,2-c]pyridine-3-carbonitrile] | greater than 10 fold |
| N#Cc1c(N)sc2c(F)cnc(-c3c4c(c5c(N6C7CCC6CN(CCCO)C7)nc(OCC6(CN7CC(F)C7)CC6)nc5c3F)COC4)c12 [Example 20A, 2-Amino-7-fluoro-4-(5-fluoro-3-((1-((3-fluoroazetidin-1-yl)methyl)cyclopropyl)meth-oxy)-1-(3-(3-hydroxypropyl)-3,8-diazabicyclo[3.2.1]octan-8-yl)-7,9-dihydrofuro[3,4-f]quinazolin-6-yl)thieno[3,2-c]pyridine-3-carbonitrile] | greater than 10 fold |
